In patent publication US20230374092A1:
No constants are given. Whether binding was seen depends on the method and setting. Some binding calls cover weakened binding; strength is not graded here. For some assays here: Tags and fused reporters may be left off the sequences shown. Values belong to the binder of their own block, whether it stands above or below them.

Protein sequences, listed by entry. Tags and fused reporters are not part of them.
UniProt P09874: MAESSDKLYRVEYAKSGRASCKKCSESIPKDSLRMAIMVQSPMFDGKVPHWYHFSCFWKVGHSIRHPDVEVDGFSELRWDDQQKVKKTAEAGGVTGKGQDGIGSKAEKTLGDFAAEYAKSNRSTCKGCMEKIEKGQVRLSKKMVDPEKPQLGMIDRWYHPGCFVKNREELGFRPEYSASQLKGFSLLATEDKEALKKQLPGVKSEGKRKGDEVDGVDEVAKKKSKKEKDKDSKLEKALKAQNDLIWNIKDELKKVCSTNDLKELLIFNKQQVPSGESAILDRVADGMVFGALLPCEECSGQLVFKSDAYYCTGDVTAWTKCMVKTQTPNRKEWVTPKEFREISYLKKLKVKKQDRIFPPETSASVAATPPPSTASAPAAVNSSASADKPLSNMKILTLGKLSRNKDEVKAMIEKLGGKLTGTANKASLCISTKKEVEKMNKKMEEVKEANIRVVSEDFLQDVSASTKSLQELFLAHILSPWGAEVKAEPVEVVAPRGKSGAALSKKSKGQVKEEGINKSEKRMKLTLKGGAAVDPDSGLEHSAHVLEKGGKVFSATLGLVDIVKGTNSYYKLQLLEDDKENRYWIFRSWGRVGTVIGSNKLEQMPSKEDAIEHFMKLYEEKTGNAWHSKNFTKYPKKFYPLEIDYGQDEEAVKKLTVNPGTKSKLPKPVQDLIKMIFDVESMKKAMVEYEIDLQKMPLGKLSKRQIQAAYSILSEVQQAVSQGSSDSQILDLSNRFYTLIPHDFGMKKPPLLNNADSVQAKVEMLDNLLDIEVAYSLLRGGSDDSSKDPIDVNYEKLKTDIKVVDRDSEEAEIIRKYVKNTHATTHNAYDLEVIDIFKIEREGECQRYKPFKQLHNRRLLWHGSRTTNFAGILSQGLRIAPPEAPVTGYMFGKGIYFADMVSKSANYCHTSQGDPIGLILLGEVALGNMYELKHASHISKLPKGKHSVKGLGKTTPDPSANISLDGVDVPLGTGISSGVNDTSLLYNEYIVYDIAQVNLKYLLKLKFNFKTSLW
UniProt Q15046: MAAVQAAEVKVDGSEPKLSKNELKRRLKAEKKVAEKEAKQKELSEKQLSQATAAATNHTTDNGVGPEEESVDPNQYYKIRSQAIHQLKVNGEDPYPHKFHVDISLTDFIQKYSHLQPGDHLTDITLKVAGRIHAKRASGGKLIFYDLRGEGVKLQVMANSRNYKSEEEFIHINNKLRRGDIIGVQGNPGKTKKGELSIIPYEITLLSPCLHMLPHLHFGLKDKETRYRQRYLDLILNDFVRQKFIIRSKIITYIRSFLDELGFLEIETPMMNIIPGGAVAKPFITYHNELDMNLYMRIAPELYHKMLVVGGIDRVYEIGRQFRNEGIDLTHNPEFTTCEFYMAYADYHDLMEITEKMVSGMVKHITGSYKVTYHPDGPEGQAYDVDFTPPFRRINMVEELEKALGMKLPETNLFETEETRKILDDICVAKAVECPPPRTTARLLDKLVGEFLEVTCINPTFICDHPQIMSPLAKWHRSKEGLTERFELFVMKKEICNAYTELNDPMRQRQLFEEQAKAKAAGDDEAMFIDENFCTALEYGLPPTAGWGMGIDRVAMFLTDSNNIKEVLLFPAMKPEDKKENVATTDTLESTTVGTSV

Tests used:
[1] = biological target: PARP-1 (UniProt P09874); test: binding assay (figure legend)
[2] = biological target: PARP-1 (UniProt P09874); test: PARP-1 pull-down from transfected SH-SY5Y cells
[3] = biological target: KARS1 (lysyl-tRNA synthetase), full length (UniProt Q15046); test: IP of myc-KARS1 from N2A cells, immunoblot
[4] = biological target: PARP-1 (UniProt P09874); test: PARP-1 pull-down from transfected SH-SY5Y cells; AIMP2 is the weaker binder
[5] = biological target: PARP-1 (UniProt P09874); test: binding assay (figure legend); AIMP2 is the weaker binder

binding [1]: binds | binding [2]: binds
B1: AIMP2-DX2 (exon 2-deleted AIMP2 splicing variant) (protein)
chain: MPMYQVKPYHGGGAPLRVELPTCMYRLPNVHGRSYGPAPGAGHVQDYGALKDIVINANPASPPLSLLVLHRLLCEHFRVLSTVHTHSSVKSVPENLLKCFGEQNKKQPRQDYQLGFTLIWKNVPKTQMKFSIQTMCPIEGEGNIARFLFSLFGQKHNAVNATLIDSWVDIAIFQLKEGSSKEKAAVFRSMNSALGKSPWLAGNELTVADVVLWSVLQQIGGCSVTVPANVQRWMRSCENLAPFNTALKLLK

binding [3]: binds
B2: AIMP2 detected in the myc-KARS1 immunoprecipitate from N2A cells (protein, UniProt Q8R010 1-320, looked up)
chain: MPMYQVKPYHGGSAPLHVELPTCMYRLPNVHSKTTSPATDAGHVQETSEPSLQALESRQDDILKRLYELKAAVDGLSKMIHTPDADLDVTNILQADEPTTLATNTLDLNSVLGKDYGALKDIVINANPASPPLSLLVLHRLLCERYRVLSTVHTHSSVKNVPENLVKCFGEQARKQSRHEYQLGFTLIWKNVPKTQMKFSVQTMCPIEGEGNIARFLFSLFGQKHNAVTLTLIDSWVDIAMFQLREGSSKEKAAVFRSMNSALGRSPWLVGNELTVADVVLWSVLQQTGGSSGAAPTNVQRWLKSCENLAPFSTALQLLK

binding [4]: binds | binding [5]: binds
B3: AIMP2 (aminoacyl tRNA synthase complex-interacting multifunctional protein 2), expressed from a plasmid (protein)
chain: MPMYQVKPYHGGGAPLRVELPTCMYRLPNVHGRSYGPAPGAGHVQEESNLSLQALESRQDDILKRLYELKAAVDGLSKMIQTPDADLDVTNIIQADEPTTLTTNALDLNSVLGKDYGALKDIVINANPGSPPLSLLVLHRLLCEHFRVLSTVHTHSSVKSVPENLLKCFGEQNKKQPRQDYQLGFTLIWKNVPKTQMKFSIQTMCPIEGEGNIARFLFSLFGQKHNAVNATLIDSWVDIAIFQLKEGSSKEKAAVFRSMNSALGKSPWLAGNELTVADVVLWSVLQQIGGCSVTVPANVQRWMRSCENLAPFNTALKLLK
